# The supplement of paper PMC10849652
# Chains of the proteins cited; added tags and fusions are not shown. Lines headed by an entry give the natural chain unless they say otherwise; changes in a name come on top.
# UniProt Q9BUJ0: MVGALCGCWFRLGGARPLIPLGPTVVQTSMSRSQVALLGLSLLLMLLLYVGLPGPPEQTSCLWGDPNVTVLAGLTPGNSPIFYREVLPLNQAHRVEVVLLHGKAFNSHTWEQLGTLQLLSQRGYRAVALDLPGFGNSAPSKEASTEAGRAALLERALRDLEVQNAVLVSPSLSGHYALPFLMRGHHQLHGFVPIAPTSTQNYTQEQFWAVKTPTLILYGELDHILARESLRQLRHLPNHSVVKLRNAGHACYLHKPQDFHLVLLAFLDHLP
# UniProt Q13685: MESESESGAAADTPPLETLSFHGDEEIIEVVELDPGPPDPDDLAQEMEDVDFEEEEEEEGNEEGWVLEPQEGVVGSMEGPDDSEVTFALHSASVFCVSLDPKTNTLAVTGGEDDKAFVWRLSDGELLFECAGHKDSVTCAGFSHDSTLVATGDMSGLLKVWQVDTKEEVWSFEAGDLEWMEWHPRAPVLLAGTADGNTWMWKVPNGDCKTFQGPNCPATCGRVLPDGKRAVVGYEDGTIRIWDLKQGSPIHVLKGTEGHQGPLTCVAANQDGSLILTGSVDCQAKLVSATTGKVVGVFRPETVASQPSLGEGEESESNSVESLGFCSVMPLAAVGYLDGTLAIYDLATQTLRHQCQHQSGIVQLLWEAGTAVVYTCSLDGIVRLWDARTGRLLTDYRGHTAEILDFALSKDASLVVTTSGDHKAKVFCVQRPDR
# UniProt Q9H7C9: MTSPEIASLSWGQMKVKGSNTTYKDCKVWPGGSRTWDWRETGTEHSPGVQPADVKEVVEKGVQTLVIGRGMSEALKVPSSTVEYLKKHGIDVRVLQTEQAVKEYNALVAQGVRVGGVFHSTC
# UniProt Q9NYB9: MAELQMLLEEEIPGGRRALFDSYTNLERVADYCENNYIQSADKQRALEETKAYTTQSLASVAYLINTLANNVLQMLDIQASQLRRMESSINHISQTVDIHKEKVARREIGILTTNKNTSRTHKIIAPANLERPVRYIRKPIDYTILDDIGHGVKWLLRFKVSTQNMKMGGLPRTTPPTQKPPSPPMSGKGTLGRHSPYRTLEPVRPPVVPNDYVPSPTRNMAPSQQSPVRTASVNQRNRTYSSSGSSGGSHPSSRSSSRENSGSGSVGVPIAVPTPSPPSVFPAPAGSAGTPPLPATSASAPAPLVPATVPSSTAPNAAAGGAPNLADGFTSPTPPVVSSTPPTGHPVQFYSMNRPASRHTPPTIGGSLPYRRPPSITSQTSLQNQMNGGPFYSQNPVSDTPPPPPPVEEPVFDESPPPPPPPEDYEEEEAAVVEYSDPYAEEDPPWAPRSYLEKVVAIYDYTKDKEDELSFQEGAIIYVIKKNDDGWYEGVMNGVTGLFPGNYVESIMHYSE
# UniProt O75027: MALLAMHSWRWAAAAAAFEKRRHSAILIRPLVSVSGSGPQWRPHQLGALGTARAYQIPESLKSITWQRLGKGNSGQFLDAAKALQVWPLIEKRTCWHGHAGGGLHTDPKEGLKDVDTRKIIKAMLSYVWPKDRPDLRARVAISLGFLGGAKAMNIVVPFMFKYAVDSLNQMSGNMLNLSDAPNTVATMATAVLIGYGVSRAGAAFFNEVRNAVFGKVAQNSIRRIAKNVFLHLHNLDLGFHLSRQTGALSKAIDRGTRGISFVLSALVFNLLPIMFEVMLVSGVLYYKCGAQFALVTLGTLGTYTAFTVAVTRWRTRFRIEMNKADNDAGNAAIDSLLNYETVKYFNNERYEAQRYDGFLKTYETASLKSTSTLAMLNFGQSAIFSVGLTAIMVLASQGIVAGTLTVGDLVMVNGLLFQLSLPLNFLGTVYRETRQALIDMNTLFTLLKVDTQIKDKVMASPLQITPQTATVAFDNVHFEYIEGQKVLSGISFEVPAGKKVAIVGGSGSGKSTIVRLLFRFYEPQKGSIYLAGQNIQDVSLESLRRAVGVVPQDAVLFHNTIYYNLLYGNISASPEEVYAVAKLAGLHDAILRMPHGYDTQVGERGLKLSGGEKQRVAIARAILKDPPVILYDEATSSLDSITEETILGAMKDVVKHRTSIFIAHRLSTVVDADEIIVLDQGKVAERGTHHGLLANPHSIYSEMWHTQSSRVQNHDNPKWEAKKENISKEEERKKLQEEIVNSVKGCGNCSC
# UniProt Q9BTE6: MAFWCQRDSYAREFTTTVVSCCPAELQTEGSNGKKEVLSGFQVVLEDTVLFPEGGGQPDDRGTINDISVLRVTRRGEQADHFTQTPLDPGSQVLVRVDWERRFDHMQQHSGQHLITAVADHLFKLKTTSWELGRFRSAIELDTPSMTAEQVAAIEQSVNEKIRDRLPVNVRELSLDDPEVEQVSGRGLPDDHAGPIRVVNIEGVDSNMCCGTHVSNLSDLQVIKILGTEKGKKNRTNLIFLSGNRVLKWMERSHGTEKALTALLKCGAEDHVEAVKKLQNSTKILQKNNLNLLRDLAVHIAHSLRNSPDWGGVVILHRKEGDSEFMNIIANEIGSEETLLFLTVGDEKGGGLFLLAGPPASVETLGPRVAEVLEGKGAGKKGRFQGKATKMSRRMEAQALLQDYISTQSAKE
# UniProt Q9H3P7: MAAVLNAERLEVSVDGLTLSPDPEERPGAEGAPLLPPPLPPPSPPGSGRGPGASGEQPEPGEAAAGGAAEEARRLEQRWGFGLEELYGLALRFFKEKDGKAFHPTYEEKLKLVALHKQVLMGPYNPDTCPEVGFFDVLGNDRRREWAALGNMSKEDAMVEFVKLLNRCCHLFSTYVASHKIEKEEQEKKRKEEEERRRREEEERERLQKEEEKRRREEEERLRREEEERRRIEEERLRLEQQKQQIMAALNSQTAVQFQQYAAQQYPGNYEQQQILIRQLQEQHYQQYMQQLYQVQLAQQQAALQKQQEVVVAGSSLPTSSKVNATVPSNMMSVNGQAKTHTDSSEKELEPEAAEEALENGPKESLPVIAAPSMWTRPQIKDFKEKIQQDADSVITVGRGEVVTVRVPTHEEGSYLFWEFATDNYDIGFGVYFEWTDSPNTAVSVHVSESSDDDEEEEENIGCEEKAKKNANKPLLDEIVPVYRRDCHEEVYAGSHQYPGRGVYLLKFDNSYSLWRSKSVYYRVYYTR
# UniProt Q9NRK6: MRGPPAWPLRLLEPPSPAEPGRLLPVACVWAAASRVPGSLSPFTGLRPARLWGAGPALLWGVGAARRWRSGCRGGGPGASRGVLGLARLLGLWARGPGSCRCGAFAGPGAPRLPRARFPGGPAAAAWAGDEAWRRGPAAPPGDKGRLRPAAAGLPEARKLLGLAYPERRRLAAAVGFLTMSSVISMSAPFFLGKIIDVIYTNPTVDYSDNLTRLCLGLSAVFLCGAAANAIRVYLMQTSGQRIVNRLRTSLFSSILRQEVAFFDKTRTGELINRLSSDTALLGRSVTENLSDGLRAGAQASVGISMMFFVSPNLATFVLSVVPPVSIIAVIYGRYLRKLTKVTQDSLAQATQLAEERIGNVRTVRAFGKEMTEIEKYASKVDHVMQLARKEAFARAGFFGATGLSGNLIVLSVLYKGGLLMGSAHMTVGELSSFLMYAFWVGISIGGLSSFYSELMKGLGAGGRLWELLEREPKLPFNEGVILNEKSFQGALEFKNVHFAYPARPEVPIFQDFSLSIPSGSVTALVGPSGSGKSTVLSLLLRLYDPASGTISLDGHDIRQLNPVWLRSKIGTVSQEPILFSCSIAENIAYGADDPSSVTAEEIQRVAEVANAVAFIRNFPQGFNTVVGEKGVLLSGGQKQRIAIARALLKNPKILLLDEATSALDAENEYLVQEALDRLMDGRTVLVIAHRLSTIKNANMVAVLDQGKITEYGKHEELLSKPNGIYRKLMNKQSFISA
# UniProt P16219: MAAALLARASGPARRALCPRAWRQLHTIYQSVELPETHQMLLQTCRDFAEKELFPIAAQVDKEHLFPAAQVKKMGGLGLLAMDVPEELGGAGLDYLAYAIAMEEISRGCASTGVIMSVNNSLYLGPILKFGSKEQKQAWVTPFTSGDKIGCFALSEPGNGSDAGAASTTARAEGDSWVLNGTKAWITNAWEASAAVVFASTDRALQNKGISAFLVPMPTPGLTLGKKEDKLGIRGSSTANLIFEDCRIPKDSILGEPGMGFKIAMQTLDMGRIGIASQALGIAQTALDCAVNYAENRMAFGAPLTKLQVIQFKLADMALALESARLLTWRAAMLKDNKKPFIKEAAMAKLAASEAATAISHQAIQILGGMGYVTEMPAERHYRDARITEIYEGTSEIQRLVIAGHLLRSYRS
# UniProt Q9BR61: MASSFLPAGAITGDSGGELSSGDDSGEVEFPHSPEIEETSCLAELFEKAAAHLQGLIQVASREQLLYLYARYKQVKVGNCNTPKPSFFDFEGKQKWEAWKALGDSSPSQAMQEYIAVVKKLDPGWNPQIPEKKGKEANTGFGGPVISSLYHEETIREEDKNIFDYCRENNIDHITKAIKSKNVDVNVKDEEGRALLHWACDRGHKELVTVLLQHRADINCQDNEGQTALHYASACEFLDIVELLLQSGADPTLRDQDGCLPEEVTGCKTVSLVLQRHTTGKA
# UniProt Q15067: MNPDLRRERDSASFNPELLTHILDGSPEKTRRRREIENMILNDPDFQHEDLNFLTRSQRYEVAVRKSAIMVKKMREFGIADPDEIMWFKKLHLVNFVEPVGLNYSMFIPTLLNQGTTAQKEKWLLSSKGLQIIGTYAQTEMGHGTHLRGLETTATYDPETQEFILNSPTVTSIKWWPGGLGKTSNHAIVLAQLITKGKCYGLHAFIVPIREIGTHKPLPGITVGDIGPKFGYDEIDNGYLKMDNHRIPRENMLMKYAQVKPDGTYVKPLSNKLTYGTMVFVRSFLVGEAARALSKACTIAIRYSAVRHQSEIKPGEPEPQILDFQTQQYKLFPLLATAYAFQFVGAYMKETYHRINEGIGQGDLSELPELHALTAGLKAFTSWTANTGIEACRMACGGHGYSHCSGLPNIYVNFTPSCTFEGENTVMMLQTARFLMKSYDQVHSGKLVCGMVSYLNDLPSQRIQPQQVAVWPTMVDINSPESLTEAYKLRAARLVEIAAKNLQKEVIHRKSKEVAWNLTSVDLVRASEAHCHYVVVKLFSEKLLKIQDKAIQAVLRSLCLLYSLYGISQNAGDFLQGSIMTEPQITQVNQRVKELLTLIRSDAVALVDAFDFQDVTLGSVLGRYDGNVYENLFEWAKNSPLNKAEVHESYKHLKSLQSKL
# UniProt Q03154: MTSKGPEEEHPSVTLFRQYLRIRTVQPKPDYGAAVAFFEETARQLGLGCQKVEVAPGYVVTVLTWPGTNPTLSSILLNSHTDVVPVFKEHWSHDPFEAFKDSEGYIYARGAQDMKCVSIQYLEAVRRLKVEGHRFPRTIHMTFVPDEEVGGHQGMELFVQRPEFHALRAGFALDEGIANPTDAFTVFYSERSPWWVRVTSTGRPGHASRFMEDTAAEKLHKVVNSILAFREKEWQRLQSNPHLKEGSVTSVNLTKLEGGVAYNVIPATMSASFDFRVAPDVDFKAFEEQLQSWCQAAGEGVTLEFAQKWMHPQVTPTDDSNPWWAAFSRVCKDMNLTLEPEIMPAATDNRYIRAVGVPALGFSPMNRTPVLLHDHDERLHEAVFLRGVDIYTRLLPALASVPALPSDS
# UniProt O14639: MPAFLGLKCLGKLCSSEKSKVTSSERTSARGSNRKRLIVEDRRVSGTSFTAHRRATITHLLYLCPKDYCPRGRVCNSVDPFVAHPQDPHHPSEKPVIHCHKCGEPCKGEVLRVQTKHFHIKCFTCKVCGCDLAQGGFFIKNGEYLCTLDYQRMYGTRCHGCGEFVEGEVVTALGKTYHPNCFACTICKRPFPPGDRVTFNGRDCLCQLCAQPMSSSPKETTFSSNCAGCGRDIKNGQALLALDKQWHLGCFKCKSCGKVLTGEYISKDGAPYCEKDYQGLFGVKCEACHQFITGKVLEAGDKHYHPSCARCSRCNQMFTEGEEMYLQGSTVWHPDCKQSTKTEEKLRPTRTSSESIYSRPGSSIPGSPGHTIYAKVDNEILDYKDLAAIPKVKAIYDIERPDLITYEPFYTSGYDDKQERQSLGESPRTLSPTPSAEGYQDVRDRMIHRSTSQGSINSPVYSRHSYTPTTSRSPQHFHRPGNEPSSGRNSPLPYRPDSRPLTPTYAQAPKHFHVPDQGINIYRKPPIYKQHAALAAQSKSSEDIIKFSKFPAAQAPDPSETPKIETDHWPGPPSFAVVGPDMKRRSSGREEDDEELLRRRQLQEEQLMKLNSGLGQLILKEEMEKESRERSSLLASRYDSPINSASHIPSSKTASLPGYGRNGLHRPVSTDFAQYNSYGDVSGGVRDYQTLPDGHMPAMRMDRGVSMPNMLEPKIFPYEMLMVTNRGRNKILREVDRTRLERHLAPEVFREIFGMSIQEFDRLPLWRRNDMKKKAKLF
# UniProt Q96IU4: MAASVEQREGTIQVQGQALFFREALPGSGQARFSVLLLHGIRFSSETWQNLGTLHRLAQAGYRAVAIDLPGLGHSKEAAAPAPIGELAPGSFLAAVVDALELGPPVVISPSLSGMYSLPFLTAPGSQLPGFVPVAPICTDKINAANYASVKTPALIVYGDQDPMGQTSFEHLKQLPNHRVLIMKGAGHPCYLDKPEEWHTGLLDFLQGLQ
# The list shows a part of the results.
# What was measured:
# Experiment in all cases: log2 fold change, soluble protein after heating vs DMSO (PISA); higher = thermal stabilisation; K562 cells, 10 uM, 30 min; active = over 0.2 and 3.5 SD of the protein, either way, in both replicates (recomputed)
# [1] = compound: CC1=C(C=C(C=C1)NC(=O)C2=CC(=CC=C2)C(C)(C)C#N)NC3=CC4=C(C=C3)N=CN(C4=O)C
# Summary of the method: (§1)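 K562 cells at 2×10^6 cells/mL were given 10 μM compound for 30 min. Aliquots then went through 3 min of heating across 48°C-58°C, were pooled, and were extracted in PBS with 0.5% NP-40 at 4°C, and the supernatant after 21,000xg for 90 min was quantified by TMTpro 16plex LC-MS/MS with channel sums equalised. Thermal stability relative to control samples, from duplicates, is given as log2 fold change.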
# [2] = compound: CC1=C(C=C(C=C1)NC(=O)C2=CC(=CC=C2)N(C)C)NC(=O)C3=CC=C(C=C3)O
# Summary of the method: as §1
# [3] = compound: CC1=CC=C(C=C1)SC2=C3C=C(SC3=CN=C2)C(=O)N
# Summary of the method: as §1
# [4] = compound: CC1=NC(=CC=C1)C2=C(N=C(N2)C(C)(C)C)C3=CC4=NC=CN=C4C=C3
# Summary of the method: as §1
# Nexturastat A = compound: CCCCN(Cc1ccc(C(=O)NO)cc1)C(=O)Nc1ccccc1 [Nexturastat A]
# Summary of the method: as §1
# vemurafenib = compound: CCCS(=O)(=O)Nc1ccc(F)c(C(=O)c2c[nH]c3ncc(-c4ccc(Cl)cc4)cc23)c1F [vemurafenib]
# Summary of the method: as §1
# [5] = compound: CCCS(=O)(=O)Nc1ccc(F)c(C(=O)c2c[nH]c3ncc(Cl)cc23)c1F
# Summary of the method: as §1
# [6] = compound: CCCc1cc(C)[nH]c(=O)c1CNC(=O)c1cc(-c2ccnc(N3CCN(C)CC3)c2)cc2c1cnn2C(C)C
# Summary of the method: as §1
# givinostat = compound: CCN(CC)Cc1ccc2cc(COC(=O)Nc3ccc(C(=O)NO)cc3)ccc2c1 [givinostat]
# Summary of the method: as §1
# barasertib = compound: CCN(CCCOc1ccc2c(Nc3cc(CC(=O)Nc4cccc(F)c4)[nH]n3)ncnc2c1)CCOP(=O)(O)O [barasertib]
# Summary of the method: as §1
Target,log2 fold change [1],log2 fold change [2],log2 fold change [3],log2 fold change [4],log2 fold change (Nexturastat A),log2 fold change (vemurafenib),log2 fold change [5],log2 fold change [6],log2 fold change (givinostat),log2 fold change (barasertib)
ACTR3 (UniProt P61158),inactive: -0.026,inactive: -0.014,inactive: 0.017,inactive: 0.006,inactive: -0.056,inactive: 0.025,inactive: 0.01,inactive: 0.021,inactive: -0.055,inactive: 0.014
ACTG1 (UniProt K7EM38),inactive: 0.04,inactive: 0.079,inactive: 0.197,inactive: -0.078,inactive: -0.022,inactive: 0.061,inactive: -0.602,–,–,–
ABHD14A (UniProt Q9BUJ0),inactive: -0.153,–,–,–,–,–,–,–,–,–
ABCD3 (UniProt P28288),inactive: -0.022,inactive: -0.004,inactive: -0.037,inactive: 0,inactive: -0.095,inactive: 0.009,inactive: -0.008,inactive: -0.008,inactive: -0.042,inactive: -0.016
AAMP (UniProt Q13685),inactive: 0,inactive: -0.006,inactive: -0.028,inactive: -0.04,inactive: 0.012,inactive: -0.018,inactive: 0.018,inactive: -0.041,inactive: 0.033,inactive: -0.006
ACTL6A (UniProt O96019),inactive: -0.005,inactive: -0.032,inactive: 0.013,inactive: -0.017,inactive: -0.036,inactive: 0.017,inactive: 0.028,inactive: 0,inactive: -0.024,inactive: 0.014
AAMDC (UniProt Q9H7C9),inactive: 0.006,inactive: -0.05,inactive: -0.003,inactive: 0.064,inactive: -0.127,inactive: 0.004,inactive: 0.012,inactive: -0.074,inactive: -0.027,inactive: 0.011
ABI2 (UniProt Q9NYB9),inactive: 0.003,inactive: 0.017,inactive: -0.006,inactive: 0.05,inactive: -0.094,inactive: -0.007,inactive: 0.02,inactive: -0.034,inactive: 0.07,inactive: 0.02
ABCB7 isoform 2 (UniProt O75027),inactive: -0.116,inactive: 0.009,inactive: 0.054,inactive: 0.027,inactive: 0.007,inactive: 0.038,inactive: 0.076,inactive: -0.033,inactive: 0.002,inactive: 0.014
ADAMTSL4 isoform 3 (UniProt Q6UY14),inactive: -0.103,inactive: -0.027,inactive: -0.048,inactive: -0.163,inactive: 0.153,inactive: -0.203,inactive: -0.085,inactive: 0.013,inactive: 0.036,inactive: 0.006
AARSD1 isoform 3 (UniProt Q9BTE6),inactive: 0.016,inactive: -0.04,inactive: -0.003,inactive: 0.034,inactive: -0.077,inactive: 0.003,inactive: 0.122,inactive: 0.03,active: -0.273,inactive: 0.032
ACBD3 (UniProt Q9H3P7),inactive: -0.022,inactive: -0.072,inactive: 0.06,inactive: -0.016,inactive: -0.022,inactive: 0.023,inactive: 0.037,inactive: 0.042,inactive: 0.035,inactive: 0.029
ABCB10 (UniProt Q9NRK6),inactive: -0.005,inactive: 0.004,inactive: -0.01,inactive: 0.01,inactive: -0.045,inactive: -0.016,inactive: 0.006,inactive: -0.041,inactive: 0.005,inactive: 0.007
"ACTB, A0A2R8Y793",inactive: 0.008,inactive: -0.001,inactive: 0.024,inactive: 0.022,inactive: -0.01,inactive: 0.011,inactive: 0.012,inactive: -0.035,inactive: -0.021,inactive: -0.013
AAGAB (UniProt Q6PD74),inactive: -0.153,inactive: -0.063,inactive: -0.012,inactive: -0.036,inactive: 0.109,inactive: -0.012,inactive: 0.144,inactive: -0.02,inactive: -0.004,inactive: 0.068
ADAM9 (UniProt Q13443),inactive: -0.064,inactive: 0.002,inactive: 0.026,inactive: -0.036,inactive: 0.005,inactive: -0.007,inactive: -0.146,inactive: -0.024,inactive: -0.023,inactive: 0.021

# Some entries already given, limited to log2 fold change [3]:
Target	log2 fold change [3]
ABCD3 (UniProt P28288)	inactive: -0.037
AAMP (UniProt Q13685)	inactive: -0.028

# Going on with the list.

Target,log2 fold change [1],log2 fold change [2],log2 fold change [3],log2 fold change [4],log2 fold change (Nexturastat A),log2 fold change (vemurafenib),log2 fold change [5],log2 fold change [6],log2 fold change (givinostat),log2 fold change (barasertib)
ACAA2 (UniProt P42765),inactive: -0.009,inactive: 0.026,inactive: -0.005,inactive: -0.012,inactive: -0.04,inactive: -0.026,inactive: -0.003,inactive: -0.028,inactive: 0.01,inactive: -0.007
ABRAXAS1 (UniProt Q6UWZ7),inactive: -0.156,inactive: 0.162,inactive: -0.137,inactive: -0.122,inactive: -0.021,inactive: -0.056,inactive: -0.089,inactive: 0.013,inactive: -0.052,inactive: 0.026
ACADS (UniProt P16219),inactive: 0.005,inactive: -0.022,inactive: -0.027,inactive: -0.013,inactive: -0.054,inactive: 0.153,inactive: -0.007,inactive: -0.047,inactive: -0.016,inactive: -0.01
ADAT3 (UniProt Q96EY9),inactive: -0.157,inactive: -0.018,inactive: 0.017,inactive: -0.003,inactive: -0.037,inactive: -0.075,inactive: -0.066,inactive: 0.043,inactive: 0.06,inactive: 0.027
ABHD12 isoform 2 (UniProt Q8N2K0),inactive: -0.028,inactive: 0.007,inactive: -0.022,inactive: 0.001,inactive: 0.077,inactive: 0.023,inactive: 0.032,inactive: 0.02,inactive: -0.057,inactive: 0.012
ACBD6 (UniProt Q9BR61),inactive: 0.039,inactive: -0.04,inactive: 0.139,inactive: 0.067,inactive: 0.28,inactive: 0.029,inactive: 0.022,inactive: 0.127,inactive: -0.011,inactive: 0.018
ACADSB (UniProt P45954),inactive: 0.026,inactive: -0.018,inactive: 0.005,inactive: 0.034,inactive: 0.032,inactive: 0.005,inactive: 0.052,inactive: -0.007,inactive: -0.022,inactive: -0.014
ACTA1 (UniProt P68133),inactive: -0.021,inactive: 0.017,inactive: -0.009,inactive: 0.01,inactive: -0.049,inactive: 0.016,inactive: -0.018,inactive: -0.024,inactive: -0.014,inactive: 0.009
ACOX1 isoform 2 (UniProt Q15067),inactive: 0.031,inactive: 0.016,inactive: 0.021,inactive: 0.041,inactive: -0.041,inactive: -0.014,inactive: 0.027,inactive: -0.004,inactive: -0.074,inactive: -0.015
ADAM17 (UniProt P78536),inactive: -0.049,inactive: -0.001,inactive: -0.05,inactive: -0.007,inactive: 0.042,inactive: -0.038,inactive: -0.112,inactive: -0.002,inactive: -0.005,inactive: 0.013
ACY1 (UniProt Q03154),inactive: 0.022,inactive: 0.015,inactive: 0.002,inactive: 0.008,inactive: -0.134,inactive: 0.002,inactive: 0,inactive: -0.014,inactive: -0.103,inactive: -0.02
ABLIM1 (UniProt O14639),inactive: -0.082,inactive: 0.013,inactive: -0.114,inactive: 0.04,inactive: 0.004,inactive: -0.064,inactive: 0.073,inactive: -0.002,inactive: 0.122,inactive: 0.267
ACSL4 (UniProt O60488),inactive: 0.018,inactive: -0.051,active: 0.418,inactive: -0.002,inactive: 0.233,inactive: 0.021,inactive: 0.104,inactive: 0.053,inactive: 0.047,inactive: 0.034
ABHD14B (UniProt Q96IU4),inactive: -0.009,inactive: -0.04,inactive: 0.042,inactive: 0.038,inactive: -0.04,inactive: -0.043,inactive: 0.079,inactive: -0.051,inactive: -0.026,inactive: 0.016
AARS (UniProt P49588),inactive: 0.032,inactive: 0.005,inactive: 0.018,inactive: 0.06,inactive: -0.072,inactive: 0.004,inactive: 0.026,inactive: 0.013,inactive: -0.053,inactive: 0.015

# Looked up above:
# ACOX1 isoform 2 (UniProt Q15067) | log2 fold change (barasertib): inactive: -0.015
# ACADSB (UniProt P45954) | log2 fold change [5]: inactive: 0.052

# Part of the list above, as tab-separated lines:
Target	log2 fold change [1]	log2 fold change [2]	log2 fold change [3]	log2 fold change [4]	log2 fold change (Nexturastat A)	log2 fold change (vemurafenib)	log2 fold change [5]	log2 fold change [6]	log2 fold change (givinostat)	log2 fold change (barasertib)
AAGAB (UniProt Q6PD74)	inactive: -0.153	inactive: -0.063	inactive: -0.012	inactive: -0.036	inactive: 0.109	inactive: -0.012	inactive: 0.144	inactive: -0.02	inactive: -0.004	inactive: 0.068
ADAM9 (UniProt Q13443)	inactive: -0.064	inactive: 0.002	inactive: 0.026	inactive: -0.036	inactive: 0.005	inactive: -0.007	inactive: -0.146	inactive: -0.024	inactive: -0.023	inactive: 0.021
